Measured values from patent US20140234872A1.
No constants are given. Whether binding was seen depends on the method and setting. Binding seen in cells or lysates may run through a third protein. Some entries that bind do so weakly or less than the wild type.

By UniProt entry, the sequences of proteins in these tests, tags left out. Where a name states a change or a piece, a line headed by the entry shows the natural chain unless it says otherwise. Chains listed by the source or under a name are the forms on record and can include a tag or linker.
UniProt P29350: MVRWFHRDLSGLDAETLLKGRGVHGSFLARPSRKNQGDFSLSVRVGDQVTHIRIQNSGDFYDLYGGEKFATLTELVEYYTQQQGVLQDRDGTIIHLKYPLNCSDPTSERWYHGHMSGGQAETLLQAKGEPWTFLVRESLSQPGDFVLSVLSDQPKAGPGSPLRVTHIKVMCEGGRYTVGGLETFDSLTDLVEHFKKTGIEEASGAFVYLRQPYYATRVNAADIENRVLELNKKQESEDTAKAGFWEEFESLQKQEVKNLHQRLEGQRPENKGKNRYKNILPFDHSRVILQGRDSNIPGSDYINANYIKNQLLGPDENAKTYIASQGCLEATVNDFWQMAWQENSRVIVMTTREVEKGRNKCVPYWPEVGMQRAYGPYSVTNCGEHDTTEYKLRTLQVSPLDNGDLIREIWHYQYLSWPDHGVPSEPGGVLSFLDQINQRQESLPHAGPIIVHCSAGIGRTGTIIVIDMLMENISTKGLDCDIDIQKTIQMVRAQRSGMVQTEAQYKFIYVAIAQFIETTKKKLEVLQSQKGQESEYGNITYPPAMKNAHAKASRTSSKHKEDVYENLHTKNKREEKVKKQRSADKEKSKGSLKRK
endogenous GIV of HEK cells (Q3V6T2, form named): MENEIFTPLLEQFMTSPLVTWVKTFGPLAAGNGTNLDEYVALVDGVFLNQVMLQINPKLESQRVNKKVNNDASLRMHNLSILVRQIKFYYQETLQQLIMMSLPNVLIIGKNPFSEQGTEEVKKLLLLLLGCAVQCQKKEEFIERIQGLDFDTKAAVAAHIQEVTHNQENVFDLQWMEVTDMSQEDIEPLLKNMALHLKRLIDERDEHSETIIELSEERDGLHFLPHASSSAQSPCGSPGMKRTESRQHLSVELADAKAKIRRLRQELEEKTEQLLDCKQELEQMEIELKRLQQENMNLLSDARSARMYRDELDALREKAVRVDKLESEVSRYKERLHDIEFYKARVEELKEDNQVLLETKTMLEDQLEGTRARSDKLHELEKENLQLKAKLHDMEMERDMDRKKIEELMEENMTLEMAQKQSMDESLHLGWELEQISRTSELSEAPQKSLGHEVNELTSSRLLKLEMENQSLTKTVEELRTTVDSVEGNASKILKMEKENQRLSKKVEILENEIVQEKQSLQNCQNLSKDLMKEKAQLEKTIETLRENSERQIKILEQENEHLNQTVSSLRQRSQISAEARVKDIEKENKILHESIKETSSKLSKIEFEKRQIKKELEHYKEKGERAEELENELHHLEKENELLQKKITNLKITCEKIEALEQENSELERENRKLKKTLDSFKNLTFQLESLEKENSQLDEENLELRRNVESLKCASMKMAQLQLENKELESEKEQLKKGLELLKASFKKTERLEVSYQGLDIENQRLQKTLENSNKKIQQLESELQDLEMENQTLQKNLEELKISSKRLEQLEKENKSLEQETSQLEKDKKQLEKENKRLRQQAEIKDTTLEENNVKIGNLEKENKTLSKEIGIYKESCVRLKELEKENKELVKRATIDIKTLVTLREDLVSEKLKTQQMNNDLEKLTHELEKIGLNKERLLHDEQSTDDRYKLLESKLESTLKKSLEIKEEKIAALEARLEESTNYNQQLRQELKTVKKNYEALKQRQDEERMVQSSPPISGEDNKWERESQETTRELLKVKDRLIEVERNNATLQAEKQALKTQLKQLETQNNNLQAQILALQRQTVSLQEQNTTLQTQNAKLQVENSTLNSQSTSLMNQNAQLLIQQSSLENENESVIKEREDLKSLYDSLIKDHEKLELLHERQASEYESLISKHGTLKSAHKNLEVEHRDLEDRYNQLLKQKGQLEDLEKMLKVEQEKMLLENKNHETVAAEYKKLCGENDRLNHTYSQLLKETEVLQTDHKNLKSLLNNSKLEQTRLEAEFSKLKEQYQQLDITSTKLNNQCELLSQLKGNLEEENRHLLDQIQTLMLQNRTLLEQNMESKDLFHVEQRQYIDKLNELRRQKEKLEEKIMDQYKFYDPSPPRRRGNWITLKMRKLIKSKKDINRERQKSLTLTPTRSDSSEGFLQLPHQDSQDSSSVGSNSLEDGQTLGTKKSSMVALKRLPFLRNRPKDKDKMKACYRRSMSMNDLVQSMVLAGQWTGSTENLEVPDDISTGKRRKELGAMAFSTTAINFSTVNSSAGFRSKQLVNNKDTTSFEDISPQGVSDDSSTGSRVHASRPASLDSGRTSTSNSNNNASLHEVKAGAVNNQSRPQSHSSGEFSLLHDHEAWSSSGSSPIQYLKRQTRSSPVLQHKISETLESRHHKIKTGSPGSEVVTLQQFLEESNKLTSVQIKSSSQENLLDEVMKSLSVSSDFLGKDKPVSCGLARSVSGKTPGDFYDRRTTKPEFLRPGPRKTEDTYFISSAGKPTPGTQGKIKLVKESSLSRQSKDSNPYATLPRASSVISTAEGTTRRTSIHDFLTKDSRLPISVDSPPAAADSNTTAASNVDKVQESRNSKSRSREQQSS

Experiments:
[1] = target: endogenous SHP-1 of HEK cells (UniProt P29350); assay: anti-SHP-1 co-immunoprecipitation from HEK lysates (FIG. 26)
[2] = target: endogenous SHP-1 of HEK cells (UniProt P29350); assay: anti-SHP-1 co-immunoprecipitation from HEK cells (FIG. 26)

- binding [1]: binds
- binding [2]: binds
Substance: endogenous GIV of HEK cells (from UniProt Q3V6T2 1-1870)
